Drawing on PMC9634073, this text covers binding for one substance.

Amino acid sequences for entries named in this document (tags omitted).
UniProt P25696: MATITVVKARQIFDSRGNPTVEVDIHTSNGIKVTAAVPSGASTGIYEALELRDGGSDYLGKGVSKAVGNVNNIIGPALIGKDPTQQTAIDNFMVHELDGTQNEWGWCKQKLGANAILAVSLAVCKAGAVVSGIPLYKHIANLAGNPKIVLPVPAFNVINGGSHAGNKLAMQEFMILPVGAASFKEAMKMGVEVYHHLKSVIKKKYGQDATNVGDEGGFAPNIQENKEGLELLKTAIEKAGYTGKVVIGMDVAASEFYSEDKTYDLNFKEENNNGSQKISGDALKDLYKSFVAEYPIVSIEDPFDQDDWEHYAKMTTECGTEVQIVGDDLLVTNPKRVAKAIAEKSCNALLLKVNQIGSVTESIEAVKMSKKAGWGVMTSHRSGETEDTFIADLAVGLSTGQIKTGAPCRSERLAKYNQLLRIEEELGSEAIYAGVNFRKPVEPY

These are yes or no findings as the source states them, for the method shown. Binding seen in cells or lysates may run through a third protein. Some results given as binding are weak or reduced against the parent protein; the word gives no strength. Where a sequence is shown, tags or fusion partners need not be part of it.

Experiment [1] addresses T1, Glyceraldehyde-3-phosphate dehydrogenase GAPB, chloroplastic, fused to cLuc (Arabidopsis thaliana) (UniProt P25857).
T1 sequence: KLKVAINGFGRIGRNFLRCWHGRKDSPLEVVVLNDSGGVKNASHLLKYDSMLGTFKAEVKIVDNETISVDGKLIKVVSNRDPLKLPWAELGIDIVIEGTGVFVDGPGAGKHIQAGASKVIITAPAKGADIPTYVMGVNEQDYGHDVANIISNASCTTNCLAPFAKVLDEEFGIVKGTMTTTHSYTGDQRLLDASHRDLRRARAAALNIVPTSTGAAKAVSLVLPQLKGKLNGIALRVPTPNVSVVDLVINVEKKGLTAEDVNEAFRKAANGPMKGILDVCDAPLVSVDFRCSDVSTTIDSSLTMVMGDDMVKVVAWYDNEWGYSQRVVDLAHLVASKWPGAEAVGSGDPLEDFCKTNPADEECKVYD
Put plainly: split reporter; luciferase complementation assay (LCA); pairs of Agrobacterium GV3101 strains cotransformed into four-week N. benthamiana leaves; 21°C, 24 h dark then 48 h light; signals detected with CCD.

In experiment [2] the target is T2, Glyceraldehyde-3-phosphate dehydrogenase GAPA1, chloroplastic, fused to cLuc (Arabidopsis thaliana) (UniProt P25856).
T2 sequence: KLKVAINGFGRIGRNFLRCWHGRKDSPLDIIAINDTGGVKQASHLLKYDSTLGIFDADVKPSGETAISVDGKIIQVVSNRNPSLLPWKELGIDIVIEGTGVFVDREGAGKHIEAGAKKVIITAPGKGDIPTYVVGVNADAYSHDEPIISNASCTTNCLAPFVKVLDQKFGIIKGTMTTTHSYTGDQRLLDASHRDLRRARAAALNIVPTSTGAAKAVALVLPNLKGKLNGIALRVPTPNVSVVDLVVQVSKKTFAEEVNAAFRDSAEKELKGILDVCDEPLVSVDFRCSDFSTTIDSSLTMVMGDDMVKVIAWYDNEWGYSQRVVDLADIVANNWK
Described as above.

On to “AtENO2 (enolase 2) fused to nLuc (from UniProt P25696 1-444) (enzyme)”, for which the binding result in experiment [1] and in experiment [2] was “binds” each time.
